Experimental data as given in PubChem BioAssay AID1508600 (Functional Genomics Laboratory (NCATS/FGL), 2020).
The campaign covered roughly 53,000 sequences. About 3,700 (7%) were called active.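 The calls were made as follows: active = gene knockdowns whose robust z-score for IL-1 alpha signal is at least 2 or at most -2, so actives lie on both sides; inactive = the rest.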 This is one part of the list.

Assay: Components of the Cytosolic LPS Sensing Pathway: Gene Identification via Genome-wide siRNA Screen;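 also: robust z of the log signal after scaling to non-targeting control siRNA wells of the plate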
Settings: RAW264.7 macrophages, IL-1a HTRF, actives lie on both sides, screened at 100 nM (by protocol), cells primed 5 h with Pam3CSK4 first
Summary of the method: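 Using IL-1a HTRF as read-out, the screen measured release from RAW264.7 cells after 48h siRNA knockdown (100 nM), 5 h Pam3CSK4 priming and 24 h cytosolic LipidA. Values were expressed relative to negative-control wells as robust z-scores.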

| Sequence | z-score |
| --- | --- |
| GGAGAGAGAUUUUCAAUAUTT against Gtdc1 | inactive: -0.41 |
| GCUUCCUAAAGCGACUAAUTT against Dnah14 | inactive: -0.0321 |
| GGCUCUGGUGAACUACAUGTT against Olfr1378 | inactive: 0.411 |
| GGAGAUCAUGUUUAAGAAUTT against Nicn1 | inactive: -0.802 |
| GGAAUGACCAAGAAACAACTT against Recql4 | inactive: 0.00745 |
| GCCUGUCUCCUCAAUGCUUTT against Gm9903 | inactive: -0.319 |
| GGUAAAUGAUAUUCAUGGUTT against Pdlim2 | inactive: -0.516 |
| GGAAAUCUUACAGACUGAGTT against Grid2 | inactive: 0.974 |
| GGCUCAGAGAACUUCUACATT against Eif6 | inactive: -1.19 |
| GCACGGUCAAGUUUUGAUUTT against Prkaa2 | inactive: -0.792 |
| GCCAUGACCAUCUUUCUCUTT against Olfr1413 | active: -3.03 |
| UACUCUGGUAACACCCACUTT against Olfr98 | inactive: -1.23 |
| CCAACUUUCUCUUAGGAAATT against Igfl3 | inactive: -0.487 |
| CCCAAAUAUACCUGUGACATT against Txndc8 | inactive: 0.412 |
| GGUGGAAUUCAUCAAGAACTT against Kcnc1 | inactive: 0.0468 |
| GGACCUAAAGAUUGUCUUCTT against Stam | inactive: -0.79 |
| CCGAGAACCUUAAACUCCCTT against Sowahc | inactive: 0.161 |
| GGCAAGGUGUUUUAUAACATT against Flt4 | inactive: 1.25 |
| GGAGUUCGUCAACAAGAAGTT against Dll1 | inactive: -0.0899 |
| GGUGGACUUCAUGUAGAUUTT against Eif3m | inactive: -1.07 |
| GGGUAGAAAUGAGAAGUUCTT against Tcf20 | inactive: 0.766 |
| CCAUCGUCUAUCAUUUAGUTT against Six4 | inactive: 0.691 |
| GGGUAUAGAAUGAUUAUGGTT against Ly6g2 | active: -2.39 |

In a second layout: entries from further up.
GGUAAAUGAUAUUCAUGGUTT against Pdlim2
  z-score: inactive: -0.516
GGCUCAGAGAACUUCUACATT against Eif6
  z-score: inactive: -1.19
CCAACUUUCUCUUAGGAAATT against Igfl3
  z-score: inactive: -0.487
CCCAAAUAUACCUGUGACATT against Txndc8
  z-score: inactive: 0.412

Next entries.

| Sequence | z-score |
| --- | --- |
| GGCUUUCAAGACACUUCUUTT against Ccl6 | inactive: -1.6 |
| GGCAUCAAUAACUCAACAUTT against Slc5a8 | inactive: -0.256 |
| GGCACGAAGUCCGAGAAAUTT against Hs2st1 | inactive: -0.278 |
| GGGUGGAAGAAAGGUAAAGTT against Cd68 | inactive: -0.64 |
| CCCACGAGCAAUAAAAUUGTT against Lmbr1l | inactive: -1.31 |
| CGUGGAAAGAAAAUUAUCATT against Psmd11 | active: -2.21 |
| GCCAAGUGGUGACAUCAACTT against Ralgds | active: 2.7 |
| GGCAACUUCAUGGGUUUCATT against Tyr | inactive: 1.73 |
| CCAACCUAAACAAUGCAUUTT against Actn4 | inactive: -0.431 |
| GGAUUUGAUUCCGCCAACGTT against Pon2 | active: -2.03 |
| GGUGUGACAUGGUUUGAUATT against Lyrm2 | inactive: -0.00504 |
| GGUUCUAAUUAGAGAAACATT against Tcte1 | inactive: 0.461 |
| GCCACGUAUAACCACGACATT against Sun5 | inactive: 0.246 |
| CCGUAUGGACUGGUUUACUTT against Chrdl1 | inactive: 0.0556 |
| GGACAGAGCGUGCACUAGATT against Slc66a1 | inactive: -1.32 |
| GCUGUCACAGUUUGUGAUUTT against Gak | inactive: -0.108 |
| GGUCUUGAAUGUCAAGGCUTT against Mylk | inactive: 0.114 |
| GCACCCUGAUGACUGAGUUTT against Olfr204 | inactive: 1.15 |
| GGACAUUGUAGGAGCCCAUTT against Kynu | inactive: -0.153 |
| GGAAGUUUCUGAAUGCUGUTT against Klrd1 | inactive: 0.0912 |
| GGAAAAGUCCAAGUUUGAATT against Hmgb2 | inactive: -0.104 |
| CCGUUAAGUAGCUGGAAGATT against Ubl4b | inactive: 0.488 |
| CCAAUGCAAUGUUAGCUUUTT against Tas1r3 | inactive: 0.898 |

| Sequence | z-score |
| --- | --- |
| CCCGAGAUGAGGAACUUUUTT against Ndnf | inactive: -0.359 |
| GCAAGGUUAUCGCAUUUGGTT against Olfr1511 | inactive: -0.854 |
| GCUCAUACAUGGUGGACUATT against Tex37 | inactive: -0.653 |
| GGGUAUCAGUGCCUUCCUGTT against Acads | inactive: -1.05 |
| CGCCGUAUUUAGACUAAAATT against Capn11 | inactive: 1.13 |
| GGAAAGGUGAACACAAAUGTT against Gatb | inactive: 0.388 |
| CCAAUAGCUAGUCUCCUAGTT against Vmn2r29 | inactive: 0.0992 |
| GCUCAUAAUUUUGACAGCUTT against Cyp51 | inactive: 0.168 |
| GGAUGUAAAACUCUUCUACTT against Deptor | inactive: 1.28 |
| CCUGAUAUUCAUGACCAAATT against Wasf2 | inactive: -0.0177 |
| GGAGAAUCAUGUGAGCCUGTT against Tph1 | inactive: -0.0851 |
| GGUAGUCACUAUCUUAAUCTT against Olfr1101 | inactive: -0.164 |
| CGAGAAUAUUCGCCCAACCTT against Erbb3 | inactive: 0.682 |
| GGAAAGAGCUUUUUAUUGUTT against Zfp235 | inactive: 0.145 |
| CCUUUCAAGGAAAUGAUCCTT against Rxfp1 | inactive: -1.66 |
| CGUGUAUCGUUGUCUGAAUTT against Donson | active: 2.75 |
| GCAGAUCGAUUUUACCUCGTT against Tm2d1 | inactive: 0.116 |
| CCAUGAAAGAGGUAAUGCATT against Mdm4 | inactive: -0.634 |
| GGUUGUGUAAAAUAGUACUTT against Hp1bp3 | inactive: 0.172 |
| CCAGAACUCACUGUUGAUUTT against Gabre | inactive: 0.29 |
| GGGUUUUAUUGGAAAAGGATT against Riok3 | inactive: 0.595 |
| GGUGGUGGCUCUCAACUUATT against Fcrl1 | inactive: 0.242 |
| GGCACUUAAGGAAAUUGGGTT against Bloc1s1 | active: -2.02 |
